“And” between values parts separate entries of the source, which are not always exact repeats. Equal values may be shown once. The source gives many values for each of these; only a part stands here.
Test system: PBMC of RRMS patients
Assay: Gene expression microarray analysis (HG-U133A-2) of PBMC from RRMS patients treated with LAQ, ancillary study to ALLEGRO
Format: in vivo, human
From the text: The goal of this ancillary study was to characterize gene expression changes and corresponding biological mechanisms induced in PBMC of RRMS patients by LAQ treatment. According to ALLEGRO clinical trial inclusion criteria, 25 patients were randomly assigned to receive LAQ (n=13, age 38.8±2.3 years, female/male ratio: 8/5) or placebo (n=12, age 37.2±3.4 years, female/male ratio: 8/4).
Peripheral blood samples were obtained from RRMS patients at baseline before start of LAQ treatment or placebo, after 0, 1, 6 and 24 month of treatment (visit 0, 1, 6 and 7 according to ALLEGRO clinical trial protocol correspondently) for gene microarray analysis.
Briefly, 1) Peripheral blood mononuclear cells (PBMC) were obtained from RRMS patients that participated in ALLEGRO and were treated daily with 0.6 mg LAQ or placebo. PBMC were subjected for gene expression analysis (HU-133A-2-Affymatrix arrays) at baseline and at 1 and 6 months of LAQ treatment; 2) Data was analyzed by Partek Genomics Solution software. Most informative genes (MIGs) were defined as those that differentiated between groups with p<0.01. Gene functional annotation, enrichment and pathway analysis were performed by Ingenuity software. For each time point, genes that changed in placebo group were excluded from further analysis; and 3) Verification of LAQ related mechanism was performed by Western blot.
PBMC were extracted from 15 ml peripheral blood, separated by Ficoll-Hypaque gradient. Total RNA was extracted using both Trizol (Invitrogen, USA) and Phase-Lock-Gel columns (Eppendorf, Germany) including a DNase digestion step. RNA integrity was assessed by RNA Experion automated electrophoresis system (Bio-Rad Laboratories, Hercules, Calif.).
Probe synthesis using 3 μg total RNA, hybridization, detection, and scanning was performed according to the standard Affymetrix, Inc. USA protocols; cDNA was synthesized using the Two-Cycle cDNA Synthesis Kit (Affymetrix, Inc., USA), and in-vitro transcription performed with the GeneChip IVT Labeling Kit (Affymetrix, Inc., USA). The biotin-labeled IVT-RNA was hybridized to HG-U133A-2 arrays containing 18,400 gene transcripts, each corresponding to 14,500 well-annotated human genes, washed in a GeneChip Fluidics Station 450 (Hewlett Packard, USA, GeneArray-™ scanner G2500A) and scanned according to the manufacturer's protocol (Affymetrix, Inc., USA).
Data analysis was performed on Partek Genomics Solution software (www.partek.com; Partek Incorporated, St. Louis, Mo.). Expression values were computed from raw CEL files by applying the Robust Multi-Chip Average (RMA) background correction algorithm. RMA correction included: 1) values background correction; 2) quintile normalization; 3) log 2 transformation; and 4) median polish summarization. The ANOVA, Repeated Measures and correlation analysis implicated in Partek software ware applied to evaluate LAQ effects. Most informative genes MIGs were defined as those that differentiated between experimental groups with p<0.01. All p-values were calculated for False Discovery Rate (FDR) multiple test correction at p=0.05.
Additionally, significance of individual genes was tested by parametric T-test and non parametric Mann-Whitney test using Bootstrapping approach based on repeated permutations of the data with 5% FDR for multiple testing.
Gene functional annotation, enrichment, and pathway analyses to identify the leading biological pathways that operated under LAQ treatment were performed by Ingenuity Pathways Analysis software (www.ingenuity.com).
ANOVA analysis was used to compare PBMC gene expression after 1, 6 or 24 month of LAQ treatment with baseline gene expression.
For each time point inventors performed analysis source of variation in dataset. (FIG. 1). Age, gender and batch effects were considered as confounders regarding LAQ or Placebo related changes. For each time point genes associated with Placebo effect were evaluated and excluded from further analysis. […]

Structure (SMILES): CCN(C(=O)c1c(O)c2c(Cl)cccc2n(C)c1=O)c1ccccc1 [LAQ, 5-chloro-N-ethyl-4-hydroxy-1-methyl-2-oxo-N-phenyl-1,2-dihydroquinoline-3-carboxamide]
- Fold-Change (4.0 vs. 0.0) (gene KYNU, after six months of LAQ): −1.305
- Fold-Change (4.0 vs. 0.0) (gene LAD1, six months of treatment): −1.15
- Fold-Change (4.0 vs. 0.0) (gene LAMA1, PBMC, six months of LAQ treatment): −1.1216
- Fold-Change (4.0 vs. 0.0) (gene LAMA4): −1.188
- Fold-Change (4.0 vs. 0.0) (gene LAMA4, PBMC, six months of LAQ treatment): −1.117
- Fold-Change (4.0 vs. 0.0) (gene LAMB1, after six months of LAQ): −1.129
- Fold-Change (4.0 vs. 0.0) (gene LAMB4, PBMC, six months of LAQ treatment): −1.105
- Fold-Change (4.0 vs. 0.0) (gene LDB3): −1.188
- Fold-Change (4.0 vs. 0.0) (gene LDHA, after six months of LAQ): −1.126
- Fold-Change (4.0 vs. 0.0) (gene LDLR, after six months of LAQ): −1.1433
- Fold-Change (4.0 vs. 0.0) (gene LETM1): −1.184
- Fold-Change (4.0 vs. 0.0) (gene LIPF, six months of treatment): −1.153
- Fold-Change (4.0 vs. 0.0) (gene LOC55908): −1.1916
- Fold-Change (4.0 vs. 0.0) (gene LOC79999, PBMC, six months of LAQ treatment): −1.118
- Fold-Change (4.0 vs. 0.0) (gene LOC81691, six months of treatment): −1.156
- Fold-Change (4.0 vs. 0.0) (gene LOC440345 /// LOC440354 /// LOC595101 /// LOC641298 /// SMG1, six months of treatment): −1.153
- Fold-Change (4.0 vs. 0.0) (gene LOC441601, after six months of LAQ): −1.246
- Fold-Change (4.0 vs. 0.0) (gene LOC728395 /// TSPY1 /// TSPY3, PBMC, six months of LAQ treatment): −1.106
- Fold-Change (4.0 vs. 0.0) (gene LOC100131613, after six months of LAQ): −1.126
- Fold-Change (4.0 vs. 0.0) (gene LOC100287483, PBMC, six months of LAQ treatment): −1.104
- Fold-Change (4.0 vs. 0.0) (gene LOC100288442 /// LOC100289169 /// LOC728888 /// LOC729602 /// NPIPL2 /// NPIPL3 /// PDXDC2, PBMC, six months of LAQ treatment): −1.115
- Fold-Change (4.0 vs. 0.0) (gene LOC100289791, six months of treatment): −1.1539
- Fold-Change (4.0 vs. 0.0) (gene LOC100293871, six months of treatment): −1.151
- Fold-Change (4.0 vs. 0.0) (gene LOX, after six months of LAQ): −1.133
- Fold-Change (4.0 vs. 0.0) (gene LPAR3, after six months of LAQ): −1.228
- Fold-Change (4.0 vs. 0.0) (gene LPAR4, after six months of LAQ): −1.251
- Fold-Change (4.0 vs. 0.0) (gene LPHN2, after six months of LAQ): −1.134
- Fold-Change (4.0 vs. 0.0) (gene LRP4): −1.189
- Fold-Change (4.0 vs. 0.0) (gene LRP12, after six months of LAQ): −1.423
- Fold-Change (4.0 vs. 0.0) (gene LRP12, six months of treatment): −1.155
- Fold-Change (4.0 vs. 0.0) (gene LRRC17, six months of treatment): −1.152
- Fold-Change (4.0 vs. 0.0) (gene LRRC19, PBMC, six months of LAQ treatment): −1.118
- Fold-Change (4.0 vs. 0.0) (gene LRRC37B2, six months of treatment): −1.152
- Fold-Change (4.0 vs. 0.0) (gene LRRC50, after six months of LAQ): −1.331
- Fold-Change (4.0 vs. 0.0) (gene LRRC61, after six months of LAQ): −1.144
- Fold-Change (4.0 vs. 0.0) (gene LRRN3, PBMC, six months of LAQ treatment): 2.526 and 2.547
- Fold-Change (4.0 vs. 0.0) (gene LRTM1, six months of treatment): −1.159
- Fold-Change (4.0 vs. 0.0) (gene LYZL6, after six months of LAQ): −1.141
- Fold-Change (4.0 vs. 0.0) (gene LZTS1): −1.177
- Fold-Change (4.0 vs. 0.0) (gene MAGEA6, after six months of LAQ): −1.14
- Fold-Change (4.0 vs. 0.0) (gene MAGEA12, after six months of LAQ): −1.14
- Fold-Change (4.0 vs. 0.0) (gene MAGOH2, six months of treatment): −1.149
- Fold-Change (4.0 vs. 0.0) (gene MAOA, after six months of LAQ): −1.137
- Fold-Change (4.0 vs. 0.0) (gene MAP1A, after six months of LAQ): −1.134
- Fold-Change (4.0 vs. 0.0) (gene MAP2K2, after six months of LAQ): −1.262
- Fold-Change (4.0 vs. 0.0) (gene MAP4K3, after six months of LAQ): −1.377
- Fold-Change (4.0 vs. 0.0) (gene MAPK12, PBMC, six months of LAQ treatment): −1.108
- Fold-Change (4.0 vs. 0.0) (gene MARCH8, six months of treatment): −1.161
- Fold-Change (4.0 vs. 0.0) (gene MCM3AP, six months of treatment): −1.147
- Fold-Change (4.0 vs. 0.0) (gene MDFI, six months of treatment): −1.154
- Fold-Change (4.0 vs. 0.0) (gene MDK, six months of treatment): −1.155
- Fold-Change (4.0 vs. 0.0) (gene MDM2, after six months of LAQ): −1.234
- Fold-Change (4.0 vs. 0.0) (gene MECOM, PBMC, six months of LAQ treatment): −1.098
- Fold-Change (4.0 vs. 0.0) (gene METTL7A, PBMC, six months of LAQ treatment): −1.11
- Fold-Change (4.0 vs. 0.0) (gene MFAP3): −1.19
- Fold-Change (4.0 vs. 0.0) (gene MFAP3L, after six months of LAQ): −1.275
- Fold-Change (4.0 vs. 0.0) (gene MFAP3L, six months of treatment): −1.146
- Fold-Change (4.0 vs. 0.0) (gene MGAT2, after six months of LAQ): −1.2251
- Fold-Change (4.0 vs. 0.0) (gene MLANA, PBMC, six months of LAQ treatment): −1.104
- Fold-Change (4.0 vs. 0.0) (gene MLL, six months of treatment): −1.158
- Fold-Change (4.0 vs. 0.0) (gene MLLT4, after six months of LAQ): −1.236
- Fold-Change (4.0 vs. 0.0) (gene MLLT10, after six months of LAQ): −1.125
- Fold-Change (4.0 vs. 0.0) (gene MLNR, six months of treatment): −1.15
- Fold-Change (4.0 vs. 0.0) (gene MMP16, after six months of LAQ): −1.1424
- Fold-Change (4.0 vs. 0.0) (gene MMP26, after six months of LAQ): −1.226
- Fold-Change (4.0 vs. 0.0) (gene MPPED2, after six months of LAQ): −1.1435
- Fold-Change (4.0 vs. 0.0) (gene MRAS, after six months of LAQ): −1.271
- Fold-Change (4.0 vs. 0.0) (gene MRE11A, six months of treatment): −1.153
- Fold-Change (4.0 vs. 0.0) (gene MSTN, after six months of LAQ): −1.1234
- Fold-Change (4.0 vs. 0.0) (gene MSX2, six months of treatment): −1.152
- Fold-Change (4.0 vs. 0.0) (gene MT1M, after six months of LAQ): −1.137
- Fold-Change (4.0 vs. 0.0) (gene MT4): −1.19
- Fold-Change (4.0 vs. 0.0) (gene MTCP1): −1.195
- Fold-Change (4.0 vs. 0.0) (gene MTMR3, after six months of LAQ): −1.302
- Fold-Change (4.0 vs. 0.0) (gene MTMR7, PBMC, six months of LAQ treatment): −1.12
- Fold-Change (4.0 vs. 0.0) (gene MUC1, after six months of LAQ): −1.126
- Fold-Change (4.0 vs. 0.0) (gene MUC5AC, six months of treatment): −1.148
- Fold-Change (4.0 vs. 0.0) (gene MUC8, after six months of LAQ): −1.228
- Fold-Change (4.0 vs. 0.0) (gene MYBPH, after six months of LAQ): −1.136
- Fold-Change (4.0 vs. 0.0) (gene MYH4, after six months of LAQ): −1.14
- Fold-Change (4.0 vs. 0.0) (gene MYH6, PBMC, six months of LAQ treatment): −1.111
- Fold-Change (4.0 vs. 0.0) (gene MYH11, after six months of LAQ): −1.141

Reference: patent publication US20160201132A1, “GENE EXPRESSION BIOMARKERS OF LAQUINIMOD RESPONSIVENESS” (Teva Pharmaceutical Industries Ltd., priority 2013, published 2016)
